Test results taken from PubChem BioAssay AID493014 (National Center for Advancing Translational Sciences (NCATS), 2011).
About 170 (0.05%) of roughly 340,000 compounds were called active. The inconclusive results got no clear call from the source; some entries with a clear call stand among them for comparison. The call rests on the fitted dose curve; in most records, active means well fitted inhibition curve with a large enough effect in the signal ratio, with a control signal flat (not every such curve was filed as active); inconclusive means small, poorly fitted or top-dose-only effect, or effect the other way, or a change in a side signal; inactive means flat fitted curve, though single readings scatter; the % refers to the signal ratio. Potencies of inconclusive entries are doubtful fits and often do not repeat.

Test: qHTS Assay to Find Inhibitors of Chronic Active B-Cell Receptor Signaling;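 on activity change, negative = inhibition: plate controls were basal doxycycline-induced cells for no effect and cells given 10 µM MG132 for full effect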
Details: ABC-DLBCL IkBa-CBG/CBR reporter, luminescence ratio (green luciferase fused to IkBa over red control in TMD8 lymphoma cells), 4 h; activity change, negative = inhibition: at 46.1 µM (top of the series)
Summary of the method: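 Cell line TMD8 (human ABC DLBCL), stably expressing tet-inducible CBG68-IkBa fusion and CBR; IMDM/0.5% FBS; cpd up to 46 uM; dox induction, 4 h, 37C/5% CO2; dual luminescence; green/red ratio; MG132 control.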
Potency means the concentration at half of the fitted maximal effect.

| SMILES | activity change, negative = inhibition | Potency |
| --- | --- | --- |
| Cc1ccc(OCc2n[nH]c(=S)n2-c2ccc(C)cc2)cc1 | inconclusive: 12.8% | – |
| COc1ccccc1C(C)NCC(=O)NCC(=O)Nc1ccc(F)c(F)c1F (stereo unspecified) | inactive | – |
| C[C@@]12C(=O)N(CC3CC3)CC(=O)N1[C@H](/C=C/c1ccccc1)[C@@H]1C(=O)N(c3ccccc3)C(=O)[C@@H]12 | inactive | – |
| Cc1ccc(NC(=S)N(Cc2cccs2)Cc2cc3cccc(C)c3[nH]c2=O)cc1 | inconclusive: 2.91% | – |
| COC(=O)c1cc(OC)c(OC)cc1NC(=S)N1CCCC(CO)C1 (stereo unspecified) | – | inconclusive: 29.1 µM [falling, single point] |
| O=C(NNC(=O)c1ccccc1O)c1ccc(Cl)c(S(=O)(=O)N2CCCCC2)c1 | – | inconclusive: 29.1 µM [falling, single point] |
| CCn1cnc2c(NCCc3cccnc3)nc(C#N)nc21 | inconclusive: 9.22% | – |
| O=C(CSc1ccccn1)Nc1ccc2c(c1)CCC2 | – | inconclusive: 6.51 µM [rising, single point] |
| CCOCCn1c(N2CCN(c3ccccc3)CC2)nc2c1c(=O)n(C)c(=O)n2C | inconclusive: -3.02% | – |
| COc1ccc(N2CCN(C(=O)CSc3nnc4c(C)cc5ccc(C)c(C)c5n34)CC2)cc1 | inconclusive: 0.432% | – |
| O=S(=O)(Cc1ccccc1)N1CCN(Cc2ccc(Br)cc2)CC1 | inconclusive: -22.8% | – |
| CC12CC3CC(C)(C1)CC(C(=O)NC(=S)N1CCOCC1)(C3)C2 | inactive | – |
| COc1ccc(-c2cn(-c3ccccc3)nc2C(=O)O)cc1OC | inactive | – |
| O=C(N/N=C/c1ccc(O)cc1)/C(=C/c1ccc([N+](=O)[O-])cc1)NC(=O)c1ccccc1 | inconclusive: 0.467% | – |
| O=C(NCCCNC(=O)c1cnccn1)c1ccc(Br)cc1 | inactive | – |
| Nc1cccc(/C=C/c2ccncc2)c1 | – | inconclusive: 35.5 µM [falling, partial curve, poor fit] |
| Cn1c(=O)[nH]c(=O)c2c1nc(CN1CCN(c3cccc(Cl)c3)CC1)n2Cc1ccccc1Cl | inactive | – |
| Cc1cc(Cl)ccc1OCC(=O)N(Cc1ccco1)C1CCS(=O)(=O)C1 (stereo unspecified) | – | inconclusive: 10 µM [falling, partial curve] |
| Cc1cc(=O)[nH]c(SCC(=O)c2ccc(F)c(C)c2)n1 | inconclusive: -9.74% | – |
| Cc1nc(SCc2cccc(Oc3ccccc3)c2)n[nH]1 | inconclusive: 0.0165% | – |
| O=C(NC1CCCc2c1cnn2-c1cc(F)cc(F)c1)c1ccncc1 (stereo unspecified) | inactive | – |

| SMILES | activity change, negative = inhibition | Potency |
| --- | --- | --- |
| N=c1c2c(-c3ccccc3)c(-c3ccccc3)n(Cc3ccccc3)c2ncn1CCCO | – | inconclusive: 17.8 µM [falling, single point] |
| CCC1(C)Cc2ccccc2-c2nc(NCCCO)[nH]c(=O)c21 (stereo unspecified) | – | inconclusive: 35.5 µM [falling, single point] |
| Cc1ccc(S(=O)(=O)N2CCCCC2)cc1C(=O)OC1CCCCC1=O (stereo unspecified) | inactive | – |
| O=C(Nc1nncs1)c1cccc(S(=O)(=O)N2CCCCC2)c1 | – | inconclusive: 29.1 µM [falling, single point] |
| Cc1cccc(-c2noc(-c3ccc(F)cc3)n2)c1 | inconclusive: -0.534% | – |
| Cc1cccc(NC(=O)CS(=O)CC(=O)Nc2cnc3ccccc3c2)c1C (stereo unspecified) | inconclusive: -0.54% | – |
| Cc1cc(C)n2nc(C(=O)NCc3cccc(C(F)(F)F)c3)nc2n1 | inconclusive: 11.3% | – |
| NS(=O)(=O)c1cccc(Nc2nc3ccccc3nc2NS(=O)(=O)c2ccc(Cl)cc2)c1 | inconclusive: 1.01% | – |
| COc1ccc(NC(=O)Cc2nnc(SCC(=O)NC3CCCC3)n2C)cc1 | inactive | – |
| CC(=O)N1c2ccc(S(=O)(=O)N3CCC(C(=O)N4CCN(c5ccccc5F)CC4)CC3)cc2CC1C (stereo unspecified) | inactive | – |
| CCOc1ccc(CNC(=O)CCS(=O)(=O)Cc2ccc(C)cc2)cc1OC | – | inconclusive: 3.98 µM [falling, single point] |
| CCC(=O)Nc1cccc(-c2cn3ccsc3n2)c1 | inactive | – |
| CCOC(=O)CC(=O)CSc1nc2ccsc2c(=O)n1Cc1ccccc1 | inconclusive: 6.17% | – |
| Cc1nc2ccccc2c2oc(C(=O)N3CCCC(C)C3)cc12 (stereo unspecified) | inconclusive: -3.68% | – |
| COc1cccc(NC(=O)c2ccc3c(c2)CCN3S(C)(=O)=O)c1 | inconclusive: -20.2% | – |
| O=C(NC(C(=O)N/N=C/c1c2ccccc2cc2ccccc12)c1n[nH]c(=O)c2ccccc12)c1ccccc1 (stereo unspecified) | inactive | – |
| Cc1cccc(N=C2NC(=O)/C(=C\c3cccs3)S2)c1 | – | inconclusive: 4.61 µM [falling, single point] |
| COc1ccc(NC(=S)NCCCCCC(=O)C[N+](=O)[O-])cc1 | – | inconclusive: 25.1 µM [falling, partial curve] |
| COc1ccc(Nc2nc3ccccc3s2)cc1 | – | inconclusive: 35.5 µM [falling, single point] |
| O=C(NCc1ccccc1CN1CCCC1)c1cccc(S(=O)(=O)Nc2ccc(F)cc2)c1 | inconclusive: -3.09% | – |
| CCOc1ccc(C2C(C(=O)c3ccc(C)o3)=C(O)C(=O)N2c2nc(C)c(C(=O)OC)s2)cc1 (stereo unspecified) | – | inconclusive: 11.2 µM [falling, partial curve, poor fit] |

| SMILES | activity change, negative = inhibition | Potency |
| --- | --- | --- |
| CN1CCc2nc(NC(=O)c3cccc(OC(F)F)c3)sc2C1 | – | inconclusive: 29.1 µM [falling, single point] |
| CC(=O)NC(CCS(C)(=O)=O)C(=O)Nc1ccc2c(c1)OCCO2 (stereo unspecified) | inconclusive: 7.77% | – |
| COc1ccc(NC(=O)c2cc(-c3ccco3)on2)cc1 | – | inconclusive: 25.1 µM [falling, partial curve] |
| CC1=NN(c2nc(C)cc(C)n2)C(=O)C1CCC(C)C (stereo unspecified) | inactive | – |
| CCn1c(/C=C/Nc2ccccc2)[n+](CC)c2cc(Cl)c(Cl)cc21 | inactive | – |
| O=C1CC(N2CCCCC2)C(=O)N1c1ccccc1 (stereo unspecified) | inactive | – |
| O=C(/C=C/c1ccccc1)NCC(=O)N/N=C\c1cccnc1 | inconclusive: 0.726% | – |
| COc1ccc(C2=NNC(=Nc3cc(S(=O)(=O)N(C)C)ccc3C)SC2)c(OC)c1 | inactive | – |
| CCC1CCCCN1C(=O)c1nn2cccnc2c1Cl (stereo unspecified) | inconclusive: -1.32% | – |
| O=C1c2ccccc2NC(c2cccc(O)c2)N1O (stereo unspecified) | inconclusive: 2.77% | – |
| CN(C)c1oc(-c2ccccc2)nc1C#N | inactive | – |
| CCOc1cccc(/C=N/Nc2nc(N3CCCC3)nc(N3CCCC3)n2)c1O | inactive | – |
| CNC(=O)C(=O)N/N=C/c1cccnc1 | inconclusive: -5.19% | – |
| C#CCn1c(=NC(=O)c2ccc(Cl)s2)sc2cccc(OC)c21 | – | inconclusive: 20.6 µM [falling, partial curve] |
| CCC(C(=O)NC1CCCC1)N(Cc1ccco1)C(=O)Cn1nnc(-c2ccc(C)cc2)n1 (stereo unspecified) | inconclusive: 0.192% | – |
| Cc1ccccc1OCC(=O)OCC(=O)c1ccc(OCc2ccccc2)cc1 | inactive | – |
| Cc1cccc(NC(=O)c2ccc(S(=O)(=O)N(C)C)cc2)n1 | inactive | – |
| C=CCC[C@@H](Cc1ccc(F)cc1)C(=O)OC[C@@H](NC(=O)[C@@H](CC=C)CC(=O)N[C@@H](CO)Cc1ccccc1)C(C)(C)C | inconclusive: -0.576% | – |
| CC(=O)c1c(C)[nH]c(C(=O)Nc2ccc(S(=O)(=O)N(C)C)cc2)c1C | – | inconclusive: 2.24 µM [falling, partial curve, poor fit] |
| O=C(NCCS(=O)(=O)N1CCN(c2ccc(F)cc2)CC1)c1ccco1 | inactive | – |
| Cc1nc2cc(-c3cccc(F)c3)nn2c(C)c1CCC(=O)N1CCN(c2ccccn2)CC1 | – | inconclusive: 14.1 µM [falling, partial curve] |

| SMILES | activity change, negative = inhibition | Potency |
| --- | --- | --- |
| O=C(CCn1cccc1)Nc1ccc(F)cc1 | inconclusive: 19.1% | – |
| O=C(/C=C/c1ccccc1)NCCOc1ccccc1 | inconclusive: -4.37% | – |
| CC(=O)c1ccc(Nc2cc(C)nc3ccccc23)cc1 | – | inconclusive: 10 µM [falling, partial curve, poor fit] |
| CC(=O)N1c2ccc(S(=O)(=O)NCCC(=O)N(C)C3CCCCC3)cc2CC1C (stereo unspecified) | inconclusive: 11.5% | – |
| Oc1cccc(-c2nc3c4c(ncn3n2)-c2ccccc2CC42CCCC2)c1 | inactive | – |
| COc1ccc(NC(=O)CSc2nnnn2C2CC2)cc1S(=O)(=O)N1CCOCC1 | inconclusive: 1.75% | – |
| NS(=O)(=O)c1ccc(CCNC(=O)c2ccc(Cl)c(S(=O)(=O)N3CCCCC3)c2)cc1 | inactive | – |
| Cc1ccc(C2=NS(=O)(=O)N(C)C(C(=O)Nc3ccc(F)cc3F)=C2)cc1 | inconclusive: -12.9% | – |
| COc1ccc(C)cc1NC(=O)c1nn(C)c(C(=O)Nc2cc(C)ccc2OC)c1[N+](=O)[O-] | inconclusive: 2.89% | – |
| COC(=O)c1ccc(OCC(=O)NC2CCCCCCC2)cc1 | inactive | – |
| O=S(=O)(c1ccccc1)c1nc(-c2ccccc2Cl)oc1NCCCN1CCOCC1 | inconclusive: -19.7% | – |
| CN(C)C(=S)Nc1ccc(Cl)cc1 | inconclusive: 10.1% | – |
| CCc1ccc(NC(=O)NCc2ccc3c(c2)OCO3)cc1 | – | inconclusive: 20 µM [falling, partial curve] |
| CCc1ccc(NC(=O)[C@@H](NC(=O)[C@@H]2Cc3ccccc3CN2)C(C)CC)cc1 (stereo partly specified) | inconclusive: 11.5% | – |
| CCCCCC(=O)N(CN1C(=O)CCC1=O)c1ccccc1 | inconclusive: 3.17% | – |
| O=C(Nc1ccccc1Cl)N1CCN(c2ncccn2)CC1 | – | inconclusive: 1.84 µM [falling, partial curve, poor fit] |
| O=C(CCNC(=O)c1ccc(Cl)cc1)Nc1ccc(F)cc1F | inactive | – |
| Cc1nc(CNC(=O)CC2C(=O)NCCN2Cc2cccc(Oc3ccccc3)c2)cs1 (stereo unspecified) | inconclusive: 5.31% | – |

As entered above.
Value of CN1CCc2nc(NC(=O)c3cccc(OC(F)F)c3)sc2C1 under Potency: inconclusive: 29.1 µM [falling, single point]
Value of COc1ccc(NC(=O)c2cc(-c3ccco3)on2)cc1 under Potency: inconclusive: 25.1 µM [falling, partial curve]
Value of O=C1c2ccccc2NC(c2cccc(O)c2)N1O (stereo unspecified) under activity change, negative = inhibition: inconclusive: 2.77%
Value of O=S(=O)(c1ccccc1)c1nc(-c2ccccc2Cl)oc1NCCCN1CCOCC1 under activity change, negative = inhibition: inconclusive: -19.7%
